Measured values: paper PMC3556083

B1: ALOX15 (protein, UniProt Q02759 1-663)
chain: MGVYRIRVSTGDSKYAGSNNEVYLWLVGQHGEASLGKLLRPCRDSEAEFKVDVSEYLGPLLFVRVQKWHYLTDDAWFCNWISVKGPGDQGSEYMFPCYRWVQGRSILSLPEGTGCTVVEDSQGLFRKHREEELEERRSLYRWGNWKDGSILNVAAASISDLPVDQRFREDKRIEFEASQVIGVMDTVVNFPINTVTCWKSLDDFNCVFKSGHTKMAERVRNSWKEDAFFGYQFLNGANPMVLKRSTCLPARLVFPPGMEKLQAQLNKELQKGTLFEADFFLLDGIKANVILCSQQYLAAPLVMLKLMPDGQLLPIAIQLELPKTGSTPPPIFTPSDPPMDWLLAKCWVRSSDLQLHELQAHLLRGHLMAEVFAVATMRCLPSVHPVFKLLVPHLLYTMEINVRARSDLISERGFFDKAMSTGGGGHLDLLKQAGAFLTYCSLCPPDDLAERGLLDIETCFYAKDALRLWQIMNRYVVGMFNLHYKTDKAVQDDYELQSWCREITDIGLQGAQDRGFPTSLQSRAQACYFITMCIFTCTAQHSSVHLGQLDWFYWVPNAPCTMRLPPPTTKEATMEKLMATLPNPNQSTLQINVVWLLGRRQAVMVPLGQHSEEHFPNPEAKAVLKKFREELAALDKEIEIRNKSLDIPYEYLRPSMVENSVAI
B2: SORBS2 (protein, UniProt O35413 1-1196)
chain: MNTDSGGCARKRAAMSVTLTSVKRVQSSPNLLAAGRESHSPDSAWRSYNGRNPETLNGDATYSSLAAKGFRSVRPNLQDKKSPTQSHITINGNSGGAVSPVSYYQRPFSPSAYSLPASLNSSIIMPHGRSLDSAETYSQHAQSLDGTMGSSIPLYRSSEEEKRVTVIKAPHYPGIGPVDESGIPTAIRTTVDRPKDWYKTMFKQIHMVHKPDEDTDMYNTPYTYNAGLYNSPYSAQSHPAAKTQTYRPLSKSHSDNGTDAFKEATSPVPPPHVPPRPRDQSSTEKHDWDPPDRKVDTRKFRSEPRSIFEYEPGKSSILQHERPVSVYQSSIDRSLERPSSSASMAGDFRKRRKSEPAVGPPRGLGDHSSSRTSPGRADLPGSSSTFTTSFISSSPSSPSRAQGGDDSKMCPPLCSYSGLNGSPSSELECCGAYRRHLDVPQDSQRAITFKNGWQMARQNAEIWSSTEEAVSPKIKSRSCDDLLNDDCGSFPDPKTKSESMGSLLCDEGSKESDPMTWTSPYIPEVCGNSRSRLKHRSAHNAPGFLKMYKKMHRINRKDLMNSEVICSVKSRILQYEKEQQHRGLLHGWSQSSTEEVPRDVVPTRISEFEKLIQKSKSMPNLGDEMLSPVTLEPPQNGLCPKRRFSIESLLEEETQVRHPSQGQRSCKSNTLVPIHIEVTSDEQPRTHMEFSDSDQDGVVSDHSDNVHVERSSFCSESDFDHFSFTSSESFYGSSHHHHHHHHHHGHFISSCKGRCPASYTRFTTMLKHERAKHENIDRPRRQDMDPGLSKLAFLVSPVPFRRKKVLTPQKQTEQAKCKASVVEALDSALKDICDQIKAEKRRGSLPDNSILHRLISELLPQIPKRNSSLNALKRSPMHQPFHPLPQDGAIHCPLYQNDCGRMPHSASFPDVDTTSSYHAQDYGSVLSLQDHESPRSYSSTLTDLGRSVSRERRGTPEKEVKLPAKAVYDFKAQTSKELSFKKGDTVYILRKIDQNWYEGEHHGRVGIFPISYVEKLTPPEKAQPARPPPPVQPGEIGEAIAKYNFNADTNVELSLRKGDRIILLKRVDQNWYEGKIPGTNRQGIFPVSYVEVVKRNTKGSEDYPDPPLPHSYSSDRIYSLSSNKPQRPVFSHENIQGGGEPFQALYNYTPRNEDELELRESDVVDVMEKCDDGWFVGTSRRTKFFGTFPGNYVKRL
B3: ARL8B (protein, UniProt Q66HA6 1-186)
chain: MLALISRLLDWFRSLFWKEEMELTLVGLQYSGKTTFVNVIASGQFSEDMIPTVGFNMRKVTKGNVTIKIWDIGGQPRFRSMWERYCRGVNAIVYMIDAADREKIEASRNELHNLLDKPQLQGIPVLVLGNKRDLPNALDEKQLIEKMNLSAIQDREICCYSISCKEKDNIDITLQWLIQHSKSRRS

molecular target: β2-adrenergic receptor (UniProt P07550); experiment: affinity purification with mass spectrometry; purified Flag-β2AR in rHDL immobilised on M1 anti-Flag resin, occupied by 50 µM BI-167107 (full agonist) or 50 µM carazolol (inverse agonist); adult rat heart cytosol (10 mg/ml, 4 mM CaCl2) overnight at 4°C; eluted with FLAG peptide and EDTA; gel slices, LC-MS; proteins of the M1 resin, empty rHDL and Ni-NTA controls subtracted; hits of either or both samples; only the target purified

binding, binds:
B1, B2, B3

These are yes or no findings as the source states them, for the method shown. Binding seen in cells or lysates may run through a third protein. Here binding means that the protein was enriched with, or labelled near, the bait; the list need not be complete.
